Results from paper PMC9206729.

Columns and labels:
[1] = test system: T1, His6-PhoP (Saccharopolyspora erythraea); assay: EMSA; details: EMSA as in Xu et al. (binding buffer, pH and temperature not stated), 6% native PAGE, 0.5x TBE, ice bath, 120 V, recombinant protein, protein details: His6, label: 5'-biotin, probe letters rebuilt from the primers and the genome
T1 sequence (looked up, limits assumed): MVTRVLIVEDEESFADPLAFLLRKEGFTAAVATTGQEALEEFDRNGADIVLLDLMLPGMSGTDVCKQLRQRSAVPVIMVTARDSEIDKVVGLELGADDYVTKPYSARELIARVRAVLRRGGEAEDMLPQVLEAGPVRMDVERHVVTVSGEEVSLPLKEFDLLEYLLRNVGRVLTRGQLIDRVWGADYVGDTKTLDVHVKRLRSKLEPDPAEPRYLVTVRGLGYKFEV

[2] = molecular target: T2, His6-GlnR (Saccharopolyspora erythraea) (UniProt A4FQD5); assay: EMSA; details: EMSA as in Xu et al. (binding buffer, pH and temperature not stated), 6% native PAGE, 0.5x TBE, ice bath, 120 V, recombinant protein, protein details: His6, label: 5'-biotin, probe letters rebuilt from the primers and the genome
T2 sequence (looked up, limits assumed): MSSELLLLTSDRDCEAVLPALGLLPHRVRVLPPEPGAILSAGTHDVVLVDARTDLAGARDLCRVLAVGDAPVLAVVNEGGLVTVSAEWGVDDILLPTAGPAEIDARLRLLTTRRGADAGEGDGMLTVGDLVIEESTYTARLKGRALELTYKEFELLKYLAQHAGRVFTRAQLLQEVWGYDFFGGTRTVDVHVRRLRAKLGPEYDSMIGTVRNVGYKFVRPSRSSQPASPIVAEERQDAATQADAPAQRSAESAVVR

[3] = 0.2 and 0.4 uM protein, specific and non-specific competitor controls

Sequence	binding result [1, 3]	binding result [2, 3]	binding result ([1]; up to 0.4 uM protein)	binding result ([2]; up to 0.4 uM protein)
AGCCAGTGGCGATAAGAGACCGTGGACTTCGAGGATCTCAGCGAGTACCTGCCGGTGCACTACGGCCGGGTGCTGGAGGTGCTGGAGAGCCGCGAACAGGAGCTCTCCGACCGCATCGGCGAGGATTACCGGAACCGGATGAAGACCGGCCTGCGCAACTGGGTCGAAGCGGGCAACGCGGGCAACCTGGCGTGGGGGATCTTCCATGCGCAGTCTTGACAGTGACCGTCCGTACGCAAGGATCGAAGCCGAAACCGCTGTGAGGTGAGGATCAGCCGTGAGTGAGATCAACCGCAGGTTGTTCACGAGTGAGTCGGTGACCGAGGGTCACCCCGACAAGATGTGCGACGCGATCAGCGACTCCATCTTATCGCCACTGGCT (double strand) [SACE_3900 promoter probe]	binds	binds		
AGCCAGTGGCGATAAGCCGCAAGGCCTGCGACCTGCTGGTCGTCAACGCCGTCGGCGAAGGCGGCGCCTTCGAGGGCGAGGACAACGGGGGCTGGCTGCTCGCCGCCGACGGCGCCGAGAGCCCGATCCGCCACGGCTCCAAGTCGCTGCTAGCGTCCACATTGTGGGATGCGGTGAGCCTGCGGCTGGGGCGACAGTAACCTCGAAGCCAAATCTTCAGAGCATTTCCCGCCGCACCGCACCGGCGGCGTAGTCTTCGAACCATCCAGGGAGAGTTGTGAGTCAGCAGCATGACCTGCGCGGAGCCGGCCGCAGGTTGTTCACCAGTGAGTCCGTGACCGAAGGGCACCCGGACAAGATCTGCGACGCGATCAGCCTTATCGCCACTGGCT (double strand) [SACE_2103 promoter probe]			no binding	no binding

Construct, isoform or probe ends are uncertain for at least one entry. Negatives hold for the conditions tested. Where a protein sequence is shown, tags need not be part of it.
